Results from PubChem BioAssay AID624291 (National Center for Advancing Translational Sciences (NCATS), 2012).
Out of some 350,000 compounds screened, about 220 (0.063%) were called active. Inconclusive results, whose numbers are uncertain, are shown with a selection of clear calls. Calls come from the whole dose curve; as a rule, active = well fitted activation curve with a large enough effect; inconclusive = small, poorly fitted or top-dose-only effect; inactive = no such curve, though single readings can be large or run the other way. A potency beside an inconclusive call is a rough fit, not a confirmed value.

test: qHTS for Activators of Integrin-Mediated Alleviation for Muscular Dystrophy; details: alpha7betagal myoblasts, beta-gal FDG fluorescence, 48 h; activation: at 38.3 µM (top of the series); note: nearly all actives have a fitted effect of over 60% in size;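 for activation: 100% = response of the positive control SU9516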
Description: Integrins are a diverse family of transmembrane cell surface receptors that mediate interactions between cells and the extracellular matrix. These heterodimeric proteins are composed of alpha and beta subunits and the a7b1 interacts with laminin in the extracellular matrix and actin of the cell cytoskeleton. Both chains contribute to ligand binding, but the alpha chain mediates the specificity of the interaction. The alpha7beta1 integrin is a major laminin receptor in skeletal, cardiac and vascular smooth muscle. Mutations in the alpha7 integrin gene are responsible for muscular dystrophy in both humans and mice. The alpha7beta1 integrin is also a major modifier of muscle disease progression in various muscle diseases including Duchenne muscular dystrophy, Fukuyama muscular dystrophy and merosin deficient congenital muscular dystrophy type 1A. […] Transcriptional regulation of the alpha7 integrin gene is poorly understood and probably involves multiple transcription factors. The goal of identifying small molecules that enhance alpha7 integrin expression is two-fold: firstly, such molecules would help us gain insight into the complex transcriptional control of alpha7 integrin. It is known that alpha7 integrin expression is tightly controlled during various stages of development, disease and in response to external stimuli. The second goal of the project is to translate the above finding into a therapeutic strategy for muscular dystrophy. […] Thus this project aims to discover small molecule probes that would not only help in gaining a better understanding of the complex regulatory mechanism of alpha7 integrin expression, but also lead to development of pharmacological agents to fight muscular dystrophy. NIH Chemical Genomics Center [NCGC] NIH Molecular Libraries Probe Centers Network [MLPCN] MLPCN Grant: NS058429 Assay Submitter (PI): Dean Burkin, University of Nevada School of Medicine
A total of 250 alpha7betagal+/- myoblasts at passage 13 were dispensed using a mulitdrop from Thermo into black low base tissue culture treated microclear aurora plates in 6 ul media containing DMEM without phenol, 5% FBS, 1x GluMax and 1x Penicillin/Streptomycin. The plates were incubated 16-24 hr at 37C, 5% CO2, 95% humidity covered with low evaporation stainless steel lids from Kalypsys. Compounds were then dispensed using a Kalypsys pintool to deliver 23 nl/well compounds in DMSO (diluted into 6 uL resulting in a 1:260 dilution of compound). The control compound used was the cdk2 inhibitor SU9516 from Tocirs (found in the initial LOPAC screen). The plates were incubated for 48 hours at 37C, 5% CO2, 95% humidity using the same stainless steel lids. After incubation with compound, 5 ul of the media was aspirated using the Kalypsys washer/dispenser and 3 ul of the Mammalian Protein Extraction Reagent (MPER) lysis buffer (Thermo Fisher) was added. The plates were spun at 2000 rpms to remove bubbles and an initial capture was acquired on the Viewlux (Perkin Elmer) with exciation at 480 nm and emission at 540 nm for 25 seconds to omit any auto fluorescent compounds. The plates were then incubated for 10 minutes at room temperature. After incubation, 3 ul of 125 uM Fluorescein di-galactoside (FDG) (Marker Gene Technologies) diluted in PBS with 2 mM MgCl2 and 0.2% betamercaptoethanol (BME) was added, the plates were spun at 2000 rpms and incubated for 30 minutes at room temperature. The plates were again read on the Viewlux with exciation at 480 nm and emission at 540 nm for 25 seconds.
Potency is the fitted concentration of half-maximal effect.

SMILES | Potency | activation
COc1cc2[nH]c3c(OC)ncnc3c2cc1OC | inconclusive: 12.6 µM [activator, partial curve, poor fit] | –
Cc1ccc(C)c(NC(=S)N2CCC(NC(=O)C3CCCCC3)CC2)c1 | – | inactive: -6.66%
O=S(=O)(c1ccc2ccccc2c1)N(CC1CO1)c1ccccc1 (configuration not stated) | inconclusive: 5.01 µM [activator, single point] | –
CCC(=O)Nc1ccc(N2CCN(S(C)(=O)=O)CC2)cc1 | inconclusive: 5.01 µM [activator, partial curve, poor fit] | –
O=C(CCNC(=O)C1CCN(S(=O)(=O)c2ccccc2)CC1)NCc1ccccc1Cl | inconclusive: 5.01 µM [activator, single point] | –
CCC(C)[C@H](NC(=O)Nc1ccc2c(c1)OCCO2)C(=O)O (some centres not stated) | inconclusive: 22.4 µM [activator, single point] | –
CCOC(=O)Nc1ccc(NC(=O)c2ccccc2F)cc1 | inconclusive: 28.2 µM [activator, single point] | –
CCCc1ccc(OCC(O)CN2CCN(c3ccccn3)CC2)cc1 (configuration not stated) | inconclusive: 5.01 µM [activator, single point] | –
COc1ccc(N2CCN(S(=O)(=O)c3c(C)nc4scc(C)n4c3=O)CC2)cc1 | inconclusive: 0.501 µM [activator, full curve, poor fit] | –
CCCN(CCC)CCNC(=O)C1CCN(S(=O)(=O)c2cccc3nsnc23)CC1 | inconclusive: 2.51 µM [activator, partial curve, poor fit] | –
Cc1ccc(C2C(C(=O)c3cc4ccccc4o3)=C(O)C(=O)N2CCN(C)C)o1 (configuration not stated) | inconclusive: 7.94 µM [activator, single point] | –
COc1ccc(NC(=O)Nc2ccccc2SC)cc1 | inconclusive: 12.6 µM [activator, single point] | –
COc1ccccc1OCC(=O)Nc1c2c(nn1-c1ccccc1)CS(=O)(=O)C2 | inconclusive: 3.55 µM [activator, partial curve, poor fit] | –
CCc1cccc(NC(=O)C2CCCN2S(=O)(=O)c2ccccc2C(F)(F)F)c1 (configuration not stated) | – | inactive: -9.1%
CC(C)=CCN1CCNC(=O)C1CC(=O)NCc1nc(C)c(C)s1 (configuration not stated) | – | inactive: -14.9%
S=c1[nH]nc(-c2ccc3ccccc3n2)n1-c1ccccc1 | – | inactive: 21.8%
COC(=O)c1sc(-c2ccc(Cl)cc2)cc1NC(=O)/C=C/C(=O)O | inconclusive: 3.16 µM [activator, single point] | –
C=CCNC(=O)c1ccc(Cn2cc(C(F)(F)F)ccc2=O)cc1 | inconclusive: 2.24 µM [activator, single point] | –
CCCNC(=O)c1noc2c1CCc1cc(OC)ccc1-2 | inconclusive: 5.01 µM [activator, single point] | –
COc1ccc(N2C(=NC(=O)C(C)Oc3ccccc3)SC3CS(=O)(=O)CC32)cc1 (configuration not stated) | inconclusive: 3.16 µM [activator, partial curve, poor fit] | –
COc1ccc(Br)cc1/C=N/NC(=O)CN1CCCCC1 | – | inactive: -15%
COc1ccc(NC(=O)NCCCCc2ccccc2)c(OC)c1 | inconclusive: 5.01 µM [activator, single point] | –
CCOC(=O)CCC(=O)Nc1ccc(S(=O)(=O)N2CCCCC2)cc1 | inconclusive: 5.01 µM [activator, single point] | –

Given tab-delimited: 2 of the compounds above.
SMILES	Potency	activation
Cc1ccc(C)c(NC(=S)N2CCC(NC(=O)C3CCCCC3)CC2)c1	–	inactive: -6.66%
O=S(=O)(c1ccc2ccccc2c1)N(CC1CO1)c1ccccc1 (configuration not stated)	inconclusive: 5.01 µM [activator, single point]	–

(cont.)

SMILES | Potency | activation
C=CCNC(=O)Cc1ccc(S(=O)(=O)N2CCOCC2)s1 | inconclusive: 1.78 µM [activator, partial curve, poor fit] | –
CCn1c(-c2cc(-c3ccc(OC(C)C)cc3)nc3ccccc23)n[nH]c1=S | – | inactive: 15.3%
O=c1[nH]c2ccc(N=Cc3c(O)ccc4cc(Br)ccc34)cc2[nH]1 | inconclusive: 3.55 µM [activator, single point] | –
Cc1ccccc1C(=O)NCCCNC(=O)c1ccccn1 | – | inactive: 1.64%
CCOc1ccc(NC(=O)c2cccc3c2C(=O)N(Cc2cccnc2)C3)cc1 | – | inactive: -21.8%
COc1ccccc1NS(=O)(=O)c1ccc2c(c1)OCCO2 | inconclusive: 28.2 µM [activator, single point] | –
CCOc1ccccc1/C=N/n1c(COc2ccccc2)n[nH]c1=S | – | inactive: -26.8%
Cc1ccccc1C(=O)Nc1ccc(C(=O)N/N=C/c2ccc(O)cc2)cc1 | inconclusive: 11.2 µM [activator, single point] | –
CCCCCCCCNS(=O)(=O)CCNCc1ccco1 | – | inactive: -18.5%
C#CCOCCOCCOCCNc1nc(N2CCN(C(=O)CCCCCCCCCCNC(=O)[C@H]([C@@H](C)CC)n3cc(CCCCCN)nn3)CC2)nc(N2CCN(C(=O)CCCCCCCCCCNC(=O)[C@H](CCCCN)n3cc(CCCC(=O)O)nn3)CC2)n1 | – | inactive: -16.7%
COc1ccc(S(=O)(=O)NCCc2ccccc2)cc1OC | – | inactive: 2.37%
COc1cccc(F)c1C(C[N+](=O)[O-])c1c(N)n(C)c(=O)n(C)c1=O (configuration not stated) | – | inactive: -27%
CC(C)Oc1ccc(S(=O)(=O)N2CCOCC2)cc1NC(=O)c1nn(C)c(=O)c2ccccc12 | inconclusive: 20 µM [activator, single point] | –
CCC(C(=O)NCC1CCCO1)N(C(=O)CNS(=O)(=O)c1ccccc1)c1ccc(F)cc1 (configuration not stated) | inconclusive: 3.55 µM [activator, single point] | –
Cc1ccc(OCC(=O)N(Cc2cccc(F)c2)C2CCS(=O)(=O)C2)cc1 (configuration not stated) | inconclusive: 3.16 µM [activator, single point] | –
COc1ccc(NC(=O)CNS(=O)(=O)c2ccc(Cl)cc2)cc1OC | – | inactive: 9.59%
Cc1cc(C)n(/N=C/c2cccc([N+](=O)[O-])c2)c(=O)c1 | inconclusive: 2.82 µM [activator, partial curve] | –
Cc1ccc(-n2c(SCC(N)=O)nnc2-c2ccco2)cc1 | inconclusive: 5.01 µM [activator, single point] | –
COc1ccccc1C(CNC(=O)CNC(=O)c1ccccc1Cl)N1CCCC1 (configuration not stated) | inconclusive: 5.01 µM [activator, single point] | –
O=C(N/N=C/c1ccccc1C(=O)O)C(=O)N1CCCCC1 | inconclusive: 5.01 µM [activator, single point] | –
C/C(=N\Nc1nncc2ccccc12)c1cccc(OC(F)F)c1 | inconclusive: 3.98 µM [activator, partial curve] | –
CC1CCc2c(C(=O)NCCN3CCOCC3)csc2C1 (configuration not stated) | – | inactive: 10.7%
Cc1ccc(Sc2c(O)c3ccccc3n(C)c2=O)cc1 | – | inactive: 2.44%

Gathered by group, the entries above with an aryl thioether with sulfur outside any ring.
SMILES | Potency | activation
COc1ccc(NC(=O)Nc2ccccc2SC)cc1 | inconclusive: 12.6 µM [activator, single point] | –
Cc1ccc(-n2c(SCC(N)=O)nnc2-c2ccco2)cc1 | inconclusive: 5.01 µM [activator, single point] | –
Cc1ccc(Sc2c(O)c3ccccc3n(C)c2=O)cc1 | – | inactive: 2.44%

(list continues)

SMILES | Potency | activation
COc1cccc2sc(N3CCN(C(=O)c4ccc([N+](=O)[O-])o4)CC3)nc12 | – | inactive: -61.2%
COc1ccc(CCNC(=O)C2CC(=O)N(c3ccc(C)cc3)C2)cc1OC (configuration not stated) | inconclusive: 0.501 µM [activator, full curve, poor fit] | –
Cc1ccc(OC(C)C(=O)N(Cc2cccs2)C2CCS(=O)(=O)C2)cc1C (configuration not stated) | inconclusive: 5.01 µM [activator, single point] | –
C#CCn1c(O)c(N=NC(=O)CNC(=O)/C=C/c2ccccc2)c2ccccc21 | inconclusive: 2.51 µM [activator, single point] | –
Cc1cccc(C)c1Nc1c(-c2ccsc2)nc2ncccn12 | inconclusive: 11.2 µM [activator, single point] | –
CCOC(=O)c1ccc(NC(=O)c2sc3nc(N4CCOCC4)c4c(c3c2N)CCCC4)cc1 | inconclusive: 3.16 µM [activator, single point] | –
Cc1cc(C)cc(OCC(=O)N/N=C/c2ccccn2)c1 | inconclusive: 11.2 µM [activator, partial curve, poor fit] | –
Cc1nc2sc(-c3ccccc3)cc2c(=O)n1N | inconclusive: 11.2 µM [activator, single point] | –
COc1ccc(C(=O)OCC(=O)Nc2ccc3c(c2)OCO3)cc1S(=O)(=O)N1CCOCC1 | inconclusive: 3.55 µM [activator, partial curve] | –
Cc1ccc(S(=O)(=O)Nc2cc(C)c(O)c(Sc3n[nH]c(C)n3)c2)cc1 | inconclusive: 28.2 µM [activator, single point] | –
CCNC(=S)N/N=C/c1cn(Cc2ccc(F)cc2)c2ccccc12 | – | inactive: -39%
Cc1ccc(-n2ccc(=O)c(C(=O)Nc3ccc(S(=O)(=O)Nc4onc(C)c4C)cc3)n2)cc1 | inconclusive: 8.91 µM [activator, partial curve, poor fit] | –
O=C(CSc1nnnn1-c1ccccc1)c1ccco1 | inconclusive: 20 µM [activator, single point] | –
Cc1ccc(CCNC(=O)c2cc(-c3ccncc3)nc3ccc(S(=O)(=O)N4CCOCC4)cc23)cc1 | inconclusive: 8.91 µM [activator, partial curve] | –
COc1ccc(NC(=O)C2CCN(S(=O)(=O)c3ccc(N4CCCC4=O)cc3)CC2)c(OC)c1 | inconclusive: 3.16 µM [activator, single point] | –
COc1ccc(CN(C)Cc2cc(=O)oc3cc(C)c(C(C)C)cc23)cc1OC | – | inactive: -58.8%
CCC(Sc1nnc(-c2ccco2)n1C)C(=O)Nc1nnc(C)s1 (configuration not stated) | inconclusive: 3.98 µM [activator, partial curve, poor fit] | –
Cc1ccc(C)n1C(CC(=O)O)c1ccc(C#N)cc1 (configuration not stated) | inconclusive: 22.4 µM [activator, partial curve, poor fit] | –
CCc1ccc(OCC(=O)NNC(=S)NC(=O)C2CC2)c(Br)c1 | – | inactive: -3.29%
O=C(NCc1cccnc1)C(=O)NCC1OCCCN1S(=O)(=O)c1ccc(Cl)cc1 (configuration not stated) | inconclusive: 20 µM [activator, single point] | –
Cc1cc(C)n2c(nc3ccccc32)c1C(=O)NN | inconclusive: 10 µM [activator, single point] | –
